From PMC9851909, “Structure of a volume-regulated heteromeric LRRC8A/C channel” (Nature Structural & Molecular Biology, 2022)
These are yes or no findings as the source states them, for the method shown. Binding seen in cells or lysates may run through a third protein. These calls come from enrichment with a bait or labelling near it, and not all partners need be listed.

Chains of the proteins cited; added tags and fusions are not shown.
UniProt Q8IWT6: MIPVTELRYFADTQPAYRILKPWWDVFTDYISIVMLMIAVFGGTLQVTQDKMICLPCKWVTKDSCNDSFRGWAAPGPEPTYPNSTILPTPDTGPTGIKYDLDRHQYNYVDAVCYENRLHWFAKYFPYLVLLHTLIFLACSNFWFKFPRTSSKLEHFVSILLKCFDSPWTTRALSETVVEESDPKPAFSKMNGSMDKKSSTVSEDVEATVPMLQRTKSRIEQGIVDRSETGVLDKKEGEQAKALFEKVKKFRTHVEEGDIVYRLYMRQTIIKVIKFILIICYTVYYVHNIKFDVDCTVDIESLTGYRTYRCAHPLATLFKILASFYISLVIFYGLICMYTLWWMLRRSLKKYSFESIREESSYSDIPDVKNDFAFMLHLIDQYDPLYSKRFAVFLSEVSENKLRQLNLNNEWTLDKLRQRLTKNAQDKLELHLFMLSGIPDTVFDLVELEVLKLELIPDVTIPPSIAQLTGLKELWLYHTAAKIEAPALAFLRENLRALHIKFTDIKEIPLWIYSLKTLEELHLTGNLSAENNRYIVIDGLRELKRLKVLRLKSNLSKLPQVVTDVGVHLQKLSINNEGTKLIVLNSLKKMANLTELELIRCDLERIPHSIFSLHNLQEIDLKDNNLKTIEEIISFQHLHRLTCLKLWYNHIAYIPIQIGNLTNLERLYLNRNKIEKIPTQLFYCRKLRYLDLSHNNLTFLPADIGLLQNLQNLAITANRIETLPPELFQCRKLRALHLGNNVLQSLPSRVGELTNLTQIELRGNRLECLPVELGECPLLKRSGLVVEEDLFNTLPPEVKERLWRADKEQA
UniProt Q6NSJ5: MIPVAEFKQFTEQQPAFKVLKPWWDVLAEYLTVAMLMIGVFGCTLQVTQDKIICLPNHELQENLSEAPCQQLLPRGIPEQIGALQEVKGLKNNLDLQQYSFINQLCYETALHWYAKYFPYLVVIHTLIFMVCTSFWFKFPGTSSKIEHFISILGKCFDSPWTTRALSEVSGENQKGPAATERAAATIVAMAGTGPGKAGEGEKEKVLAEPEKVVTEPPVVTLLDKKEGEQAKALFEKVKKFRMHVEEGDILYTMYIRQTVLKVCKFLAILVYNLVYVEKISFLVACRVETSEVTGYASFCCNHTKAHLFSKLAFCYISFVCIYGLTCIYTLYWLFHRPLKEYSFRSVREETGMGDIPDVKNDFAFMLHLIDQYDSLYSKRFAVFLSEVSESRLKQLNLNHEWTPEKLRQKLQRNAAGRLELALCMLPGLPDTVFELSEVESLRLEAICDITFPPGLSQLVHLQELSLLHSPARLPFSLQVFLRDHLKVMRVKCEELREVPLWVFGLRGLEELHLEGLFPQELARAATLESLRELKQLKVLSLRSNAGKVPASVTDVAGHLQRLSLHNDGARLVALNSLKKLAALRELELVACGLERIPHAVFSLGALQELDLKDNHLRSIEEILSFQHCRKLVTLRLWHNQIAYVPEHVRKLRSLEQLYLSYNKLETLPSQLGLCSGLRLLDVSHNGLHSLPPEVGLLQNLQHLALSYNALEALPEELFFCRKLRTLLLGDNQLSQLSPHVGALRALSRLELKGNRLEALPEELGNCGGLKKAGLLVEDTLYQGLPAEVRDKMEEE

Biological target: endogenous LRRC8A of HEK293 cells (human (endogenous in HEK293T)) (UniProt Q8IWT6)
Assay: affinity purification with mass spectrometry; pairs of endogenous LRRC8 subunits in the channels isolated on SBP-tagged Sb1 from HEK293T (WT) or LRRC8^B,D,E-/- cells; shotgun LC-MS/MS and absolute quantification with two isotope-labelled reference peptides per subunit

In the case of “endogenous LRRC8E of HEK293 cells (from UniProt Q6NSJ5 1-796)”, the binding is reported as “binds”.
